Measurements reported in the supplement of paper PMC5949888.
Most values lie at the floor of the assay. Slopes are relative: functional sequences can read slightly below zero.

Test system: Saccharomyces cerevisiae PS128 hsf1 delta, HSF1(1-493) fusion
Test: growth estimate (transactivation domain function in HSF1 fusion, heat-shock survival) (a.u. (slope of normalised read count over time)); higher = stronger growth at 37°C, i.e. more transactivation activity
Details: library: random library

Row | Substance | growth estimate
1 | LYGKAGDGRKTLSLYGGKRV | < -0.25
2 | LYGPADRVIVSVVNERARPL | < -0.25
3 | LYGS | < -0.25
4 | LYGTE | < -0.25
5 | LYGTPLSRC | < -0.25
6 | LYIA | < -0.25
7 | LYPL | < -0.25
8 | LYPVVRSCPWWGGKYQSLRC | < -0.25
9 | LYQR | < -0.25
10 | LYRLLFELQSPLPGVRCSQG | < -0.25
11 | LYSGEPPPANLEELPP | < -0.25
12 | LYSGHL | < -0.25
13 | LYSLR | -0.241
14 | LYSQGARNVHKLALWVDSGI | < -0.25
15 | LYTAQAVKVKTLGVLESY | < -0.25
16 | LYVDRIMRSDPKWACPRLSQ | < -0.25
17 | LYVPVGWSAVASNTVEHGGT | < -0.25
18 | LYVTGFRNVATLIPKALLPY | < -0.25
19 | LYVYVYREPLGNKCSTPGGC | < -0.25
20 | LYYILSLVRVQKGYLRMETG | < -0.25
21 | MAFVWS | < -0.25
22 | MAKTLWPVNVGSLNAGKDVW | < -0.25
23 | MAN | < -0.25
24 | MARFCNPGKHLCVAIRSV | < -0.25
25 | MASSRF | < -0.25
26 | MATTARTILTDSPLEV | < -0.25

Row | Substance | growth estimate
27 | MATVLSGHPAA | < -0.25
28 | MCEIIGLHAGSRA | < -0.25
29 | MCGGRIKPESICGPLRALLV | < -0.25
30 | MCGIIAIQSSP | < -0.25
31 | MCNLPLMTMFPLE | -0.107
32 | MCNR | 0.0639
33 | MCSGSSTTSLCERRSTAMRR | -0.229
34 | MCTVFLHLGKEFYCHPRTAD | < -0.25
35 | MDCGGACVAYHTLGWHRRYE | < -0.25
36 | MDDSVLTCILGGPCSVSIVR | < -0.25
37 | MDFVS | < -0.25
38 | MDPEFVPARFLGAPQHSGYI | < -0.25
39 | MDRCAGPWAYRSRDYYNSYQ | < -0.25
40 | MDRGRKRAKGPVSHSTLDVS | < -0.25
41 | MDSGEIGHVLQPLLLKVRDA | < -0.25
42 | MDYLI | < -0.25
43 | MEASATSASGITCRPVLDVA | < -0.25
44 | MEGGVPKRKVPAVRPEVSTM | < -0.25
45 | MEGYAIVPRSHKKSAI | < -0.25
46 | MEIKRSPD | < -0.25
47 | MESVVRQPPRRLSAVGPCLV | < -0.25
48 | METGNFVLGWFCARNARIAG | < -0.25
49 | METYRSRKGRATI | < -0.25
50 | MFAICRVIVV | -0.197
51 | MFKLAYGGAFAAEIRNLTGY | < -0.25
52 | MFNRTKTAALGTRDPGIRGL | < -0.25

Row | Substance | growth estimate
53 | MFNRV | < -0.25
54 | MFP | < -0.25
55 | MFRFGR | < -0.25
56 | MFTKGLDGRLRPKRHEGAWW | < -0.25
57 | MGAQP | < -0.25
58 | MGASKKFGSGMILAGLQRTS | < -0.25
59 | MGASVLG | < -0.25
60 | MGATQAVREGGARYFL | < -0.25
61 | MGDLATGLARKN | < -0.25
62 | MGEDRVGSH | < -0.25
63 | MGFALKQPVCGAAAECPKAT | < -0.25
64 | MGG | < -0.25
65 | MGGGD | < -0.25
66 | MGHGGGPHIWLRTAVSNIAL | < -0.25
67 | MGIKAAVRGRTRGA | < -0.25
68 | MGIPITRNLLGSVVRCAYRG | < -0.25
69 | MGIRWRARFRSE | < -0.25
70 | MGKDATLLAADRQV | < -0.25
71 | MGLLHPKLTRREGKLWSLAP | < -0.25
72 | MGLSQGGIGSSARLSVWRVR | < -0.25
73 | MGNAANKGDSRPSGSQ | < -0.25
74 | MGNRDAEKAE | < -0.25
75 | MGPGARMEMSRSQNLSLSRG | < -0.25
76 | MGPPVSKCAWFEEAPGGCWA | < -0.25
77 | MGRNAAATPMRRRRHPVKCG | < -0.25
78 | MGRSWCEGLG | < -0.25

Part of the list above, in CSV form.
Row,Substance,growth estimate
1,LYGKAGDGRKTLSLYGGKRV,< -0.25
5,LYGTPLSRC,< -0.25
8,LYPVVRSCPWWGGKYQSLRC,< -0.25
10,LYRLLFELQSPLPGVRCSQG,< -0.25
16,LYVDRIMRSDPKWACPRLSQ,< -0.25
17,LYVPVGWSAVASNTVEHGGT,< -0.25
19,LYVYVYREPLGNKCSTPGGC,< -0.25
20,LYYILSLVRVQKGYLRMETG,< -0.25
21,MAFVWS,< -0.25
22,MAKTLWPVNVGSLNAGKDVW,< -0.25
24,MARFCNPGKHLCVAIRSV,< -0.25
25,MASSRF,< -0.25
26,MATTARTILTDSPLEV,< -0.25
28,MCEIIGLHAGSRA,< -0.25
31,MCNLPLMTMFPLE,-0.107
33,MCSGSSTTSLCERRSTAMRR,-0.229
35,MDCGGACVAYHTLGWHRRYE,< -0.25
36,MDDSVLTCILGGPCSVSIVR,< -0.25
37,MDFVS,< -0.25
38,MDPEFVPARFLGAPQHSGYI,< -0.25
42,MDYLI,< -0.25
43,MEASATSASGITCRPVLDVA,< -0.25
45,MEGYAIVPRSHKKSAI,< -0.25
46,MEIKRSPD,< -0.25
47,MESVVRQPPRRLSAVGPCLV,< -0.25
50,MFAICRVIVV,-0.197
52,MFNRTKTAALGTRDPGIRGL,< -0.25
53,MFNRV,< -0.25
55,MFRFGR,< -0.25
56,MFTKGLDGRLRPKRHEGAWW,< -0.25
58,MGASKKFGSGMILAGLQRTS,< -0.25
62,MGEDRVGSH,< -0.25
65,MGGGD,< -0.25
67,MGIKAAVRGRTRGA,< -0.25
69,MGIRWRARFRSE,< -0.25
71,MGLLHPKLTRREGKLWSLAP,< -0.25
73,MGNAANKGDSRPSGSQ,< -0.25
74,MGNRDAEKAE,< -0.25
75,MGPGARMEMSRSQNLSLSRG,< -0.25
76,MGPPVSKCAWFEEAPGGCWA,< -0.25
77,MGRNAAATPMRRRRHPVKCG,< -0.25
78,MGRSWCEGLG,< -0.25

Carrying on.

Row | Substance | growth estimate
79 | MGRTSSIH | < -0.25
80 | MGTSHRQAGSVAD | -0.25
81 | MGWASPITSQRANGRIDRFC | < -0.25
82 | MIALSMIGSQPKTISCEYS | < -0.25
83 | MIDAFARNSAWR | < -0.25
84 | MIE | < -0.25
85 | MIFNPARETRGTLGCD | < -0.25
86 | MIFPNWLKI | < -0.25
87 | MIFVKSAPLVL | < -0.25
88 | MIHAQDLPRSQSRHCVVLRP | < -0.25
89 | MINGIRSGLHMGPLFRVLSR | < -0.25
90 | MIVRGAIYGCVAVKNSSTQR | < -0.25
91 | MIWAIIVNAASS | < -0.25
92 | MKVSKSVILADAYRLRKTLY | < -0.25
93 | MLCKNSVVIRTNRLRHYRHR | < -0.25
94 | MLEQFLGQTHALGETAAVVV | < -0.25
95 | MLFVCSG | < -0.25
96 | MLGCFAVPDSRSIKDGCPRL | < -0.25
97 | MLHRVLAFEMFVAKGTPRSG | < -0.25
98 | MLI | < -0.25
99 | MLLCV | < -0.25
100 | MLR | < -0.25
101 | MLRDLFGMNAGSVWDRLQMA | 0.394
102 | MLRFALRCSGLPTVSI | < -0.25
103 | MLRLLKSFARAPRADNIFLQ | < -0.25
104 | MLRTLVEGLPRIGTLMDSR | < -0.25

Row | Substance | growth estimate
105 | MLSA | < -0.25
106 | MLT | < -0.25
107 | MLTCRQAWIT | < -0.25
108 | MLVLALGDIRRLAIAIRRRC | < -0.25
109 | MMAGNRLVLSI | < -0.25
110 | MMEGLRYNADY | < -0.25
111 | MMF | < -0.25
112 | MMRIVH | < -0.25
113 | MMRRRDTSET | < -0.25
114 | MMSETLGTGGVVQRDQRLRA | < -0.25
115 | MNGRVRGRRPLDSCFST | < -0.25
116 | MNLERNRHCHRCNLFVWGQV | < -0.25
117 | MNMVGHKSPGSGNRMVYLIL | < -0.25
118 | MNNLRPGGSSGRVTGQSPRE | < -0.25
119 | MNSDEPVFRCF | < -0.25
120 | MNSEWSQSA | < -0.25
121 | MPAELLVSVEPAKSCRTPCT | < -0.25
122 | MPRDGCLT | -0.246
123 | MPRGLAK | < -0.25
124 | MPRSLFVPVHGGKELATRLP | < -0.25
125 | MPRSQQHRIMMTPGSDRRIH | < -0.25
126 | MPSQGSGES | < -0.25
127 | MPVLSGVVKRRSADAPSVT | < -0.25
128 | MQERG | < -0.25
129 | MQGGE | < -0.25
130 | MQGV | < -0.25

Row | Substance | growth estimate
131 | MQTGMYLGR | < -0.25
132 | MRA | -0.246
133 | MREPYAFRLKQITPRPGRCV | < -0.25
134 | MRGKSAPLAHVRNASLRGAV | < -0.25
135 | MRGNGVGIGAIGDKR | < -0.25
136 | MRHSYRLGGLSIVHSSMSVS | < -0.25
137 | MRR | < -0.25
138 | MRWVCRRLRVSGLGLEHSGG | < -0.25
139 | MSETRKTVRDADVS | < -0.25
140 | MSGCPQSLGLPYVSCILMVG | < -0.25
141 | MSIVLMRYVKVHASFPRRRC | < -0.25
142 | MSKP | < -0.25
143 | MSLG | < -0.25
144 | MSLRGSPNGRTLV | < -0.25
145 | MSRHPGYAL | < -0.25
146 | MSSTYDSTK | < -0.25
147 | MSSVGTAILHSYPSRQTPRL | -0.173
148 | MSVKGPIYGI | < -0.25
149 | MSVWQAFEVVYSIFCRKMHK | < -0.25
150 | MTERVVREV | < -0.25
151 | MTGETMWFDLFMW | < -0.25
152 | MTGTFLS | < -0.25
153 | MTKGRVDY | < -0.25
154 | MTLMNFYELPARG | < -0.25
155 | MTNLCAAGWRYPRGRLRF | < -0.25
156 | MTSI | < -0.25

4 entries from above, as tab-separated lines:
Row	Substance	growth estimate
32	MCNR	0.0639
33	MCSGSSTTSLCERRSTAMRR	-0.229
34	MCTVFLHLGKEFYCHPRTAD	< -0.25
35	MDCGGACVAYHTLGWHRRYE	< -0.25

The listing continues.

Row | Substance | growth estimate
157 | MTTKTGGHFRPQFLCSGIVN | < -0.25
158 | MVAMLV | < -0.25
159 | MVCRETESGCRNVSKSASAP | < -0.25
160 | MVFGGVPEGSCLWEERQSRG | < -0.25
161 | MVKFGRWQTATRQQHVYLCF | < -0.25
162 | MVLFSTVISQQASRGIAGFA | -0.246
163 | MVSLNSVLCISGFRGGSRGH | < -0.25
164 | MVVGRSGRTNNPSKARLCPL | < -0.25
165 | MWES | < -0.25
166 | MWIPPLPSESDRKDGRK | < -0.25
167 | MWQCLNNQG | < -0.25
168 | MYAGFTGISEESGC | < -0.25
169 | MYDFNRKWGWGPWKKAFVSR | < -0.25
170 | MYG | < -0.25
171 | MYGVGPLRPLHEDGSAIDMR | < -0.25
172 | MYLFTTADYGRLLLLDYASL | < -0.25
173 | MYQVTDYWVYGGGCKSPHPK | < -0.25
174 | MYR | < -0.25
175 | MYVSYICS | < -0.25
176 | NAE | -0.245
177 | NAFPLCEPYVADVSR | < -0.25
178 | NAGGEFYVDLASTPLRSNHE | < -0.25
179 | NAGLRFTLLIILESGQVDCG | < -0.25
180 | NAGNTPSGNGRIDWLRALRY | < -0.25
181 | NAGYPGKFGQCSVNISVK | < -0.25
182 | NAIDRGDKRPRGMGGRDAMA | < -0.25

Row | Substance | growth estimate
183 | NAIGMHDKCCRTEGVLWIPA | -0.112
184 | NANGMNGVSRS | < -0.25
185 | NARCS | < -0.25
186 | NARLEGQCLK | < -0.25
187 | NASGL | < -0.25
188 | NASVKAEHGDV | < -0.25
189 | NATHRVIAYV | < -0.25
190 | NAVLLREKCQPVTPSSKGD | < -0.25
191 | NCGEITFP | < -0.25
192 | NCGRGGQSSG | -0.245
193 | NCHSMLGASIMCL | -0.167
194 | NCKFASLARCGSRVRCVAPT | < -0.25
195 | NCLSRLCSRNDPLLRGSCGG | < -0.25
196 | NCPGTKLSIVPML | < -0.25
197 | NCR | < -0.25
198 | NCRAVNSG | < -0.25
199 | NCRREIRSGLLNNFHIGRPV | < -0.25
200 | NCVAHDVGACTPKGHRRTAS | < -0.25
201 | NCVGFAIISG | < -0.25
202 | NDAGKPTERASGAIHAQLPT | < -0.25
203 | NDCSDNGAWVEPVQLNLTRG | -0.228
204 | NDDLCVRGSGVIEAIEYSQR | < -0.25
